This passage reports CC50 results from PMC11721293 (JCI Insight, 2025).

This series relates to Huh7 cells. Particulars: initial screening.

What is called CC50 is the concentration giving 50% cytotoxicity. A lower CC50 goes with greater toxicity to the cells. As for `Clc1ccc(C(c2ccc(Cl)cc2)N2CCNCC2)cc1` [NCGC00354584], the 50% cytotoxic concentration (CC50) stood at 15.6 µM.
